Here are results for 1 molecule from paper PMC3577660.

This test addresses eukaryotic initiation factor eIF4E (human (endogenous in Jurkat)), P06730. As to the kind of experiment: pull-down; 7-methyl GTP-sepharose 4B beads (cap analogue, holds eIF4E) incubated with 250 ug protein of Jurkat lysate in 500 ul lysis buffer (50 mM HEPES pH 7.5, 150 mM NaCl, 1% Triton X-100) for 2 h at 4°C, Western blot; cells non-irradiated or 24 h after 10 Gy. The conditions noted are these: remark: other sources report otherwise.

No constants are given. Whether binding was seen depends on the method and setting. In cells and extracts the contact can be indirect.

B1: death associated protein 5, P78344 1-907 (protein)
chain: MESAIAEGGASRFSASSGGGGSRGAPQHYPKTAGNSEFLGKTPGQNAQKWIPARSTRRDDNSAANNSANEKERHDAIFRKVRGILNKLTPEKFDKLCLELLNVGVESKLILKGVILLIVDKALEEPKYSSLYAQLCLRLAEDAPNFDGPAAEGQPGQKQSTTFRRLLISKLQDEFENRTRNVDVYDKRENPLLPEEEEQRAIAKIKMLGNIKFIGELGKLDLIHESILHKCIKTLLEKKKRVQLKDMGEDLECLCQIMRTVGPRLDHERAKSLMDQYFARMCSLMLSKELPARIRFLLQDTVELREHHWVPRKAFLDNGPKTINQIRQDAVKDLGVFIPAPMAQGMRSDFFLEGPFMPPRMKMDRDPLGGLADMFGQMPGSGIGTGPGVIQDRFSPTMGRHRSNQLFNGHGGHIMPPTQSQFGEMGGKFMKSQGLSQLYHNQSQGLLSQLQGQSKDMPPRFSKKGQLNADEISLRPAQSFLMNKNQVPKLQPQITMIPPSAQPPRTQTPPLGQTPQLGLKTNPPLIQEKPAKTSKKPPPSKEELLKLTETVVTEYLNSGNANEAVNGVREMRAPKHFLPEMLSKVIILSLDRSDEDKEKASSLISLLKQEGIATSDNFMQAFLNVLDQCPKLEVDIPLVKSYLAQFAARAIISELVSISELAQPLESGTHFPLFLLCLQQLAKLQDREWLTELFQQSKVNMQKMLPEIDQNKDRMLEILEGKGLSFLFPLLKLEKELLKQIKLDPSPQTIYKWIKDNISPKLHVDKGFVNILMTSFLQYISSEVNPPSDETDSSSAPSKEQLEQEKQLLLSFKPVMQKFLHDHVDLQVSALYALQVHCYNSNFPKGMLLRFFVHFYDMEIIEEEAFLAWKEDITQEFPGKGKALFQVNQWLTWLETAEEEESEEEAD
As for B1, the binding entry is “no binding”.
